Source: paper PMC4728403
No constants are given. Whether binding was seen depends on the method and setting. Some results given as binding are weak or reduced against the parent protein; the word gives no strength. Where a sequence is shown, tags or fusion partners need not be part of it.

Molecular target: T1, Escherichia coli phosphatidylglycerol:prolipoprotein diacylglyceryl transferase (Lgt), C-terminal His6-tag (E. coli) (UniProt P60955)
T1 sequence: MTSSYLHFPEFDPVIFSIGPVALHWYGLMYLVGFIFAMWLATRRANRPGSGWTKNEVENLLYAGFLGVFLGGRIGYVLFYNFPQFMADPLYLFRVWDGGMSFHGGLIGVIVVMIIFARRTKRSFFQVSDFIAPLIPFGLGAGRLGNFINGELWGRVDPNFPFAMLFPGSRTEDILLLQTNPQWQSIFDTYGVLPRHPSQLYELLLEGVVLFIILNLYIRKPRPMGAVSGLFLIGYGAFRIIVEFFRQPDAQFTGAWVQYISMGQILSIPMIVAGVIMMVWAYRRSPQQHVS
Assay: pull-down; His6-tagged Lgt held on Cobalt resin, incubated 30 min with excess (~100 uM) lipoGFP; washed three times with 20 mM Tris-HCl pH 8.0, 300 mM NaCl, 10% glycerol, 0.6% OG, 15 mM imidazole; resin on SDS-PAGE, GFP fluorescence; both purified

binding: binds
Binder: MKATKLVLGAVILGSTLLAGCSSN (diacylglyceryl on the lipobox cysteine (C21)) [diacylglyceryl-modified lipoGFP (Lpp24-GFP, product of Lgt)]
